{
  "source": "patent US6746990B2",
  "about": "“2-phenyl-substituted heterocyclic 1,3-ketoenols as herbicides and pesticides” (Bayer Aktiengesellschaft, priority 1995, dated 2004)",
  "note": "Some results were stated once for a whole list of compounds, not compound by compound.",
  "data": [
    {"system": "peach aphids (Myzus persicae)", "test": "Myzus test", "assay_type": "in vivo", "conditions": "after 6 days; active compound concentration 0.01%; infested cabbage leaves dipped", "values": [
      {"compound": "Cc1cc(C)c(C2=C(O)C3(CCC(C)CC3)NC2=O)c(C#N)c1", "note": "(single isomer, unassigned) [Example I-1-a-4]", "destruction in %": "at least 95%"},
      {"compound": "Cc1cc(C#N)cc(C)c1C1=C(O)C2(CCC(C)CC2)NC1=O", "note": "(single isomer, unassigned) [Example I-1-a-6]", "destruction in %": "at least 95%"},
      {"compound": "CCc1cc(C#N)cc(C)c1C1=C(O)C2(CCC(C)CC2)NC1=O", "note": "(single isomer, unassigned) [Example I-1-a-5]", "destruction in %": "at least 95%"}
    ]}
  ]
}
